From US20230265201A1 (published 2023)
Changes are numbered by the printed parent chain. No constants are given. Whether binding was seen depends on the method and setting. Some results given as binding are weak or reduced against the parent protein; the word gives no strength. For part of these data: Sequences can lack the tags named with a protein.

T1: rhesus recombinant CD70 (FLAG-TNC-rhesus CD70) (rhesus macaque (Macaca mulatta)) (UniProt F7GPA5)
T1 sequence: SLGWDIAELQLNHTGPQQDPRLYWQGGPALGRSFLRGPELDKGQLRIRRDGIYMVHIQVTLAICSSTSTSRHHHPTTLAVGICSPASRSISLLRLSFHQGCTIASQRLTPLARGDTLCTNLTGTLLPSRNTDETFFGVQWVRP

T2: recombinant human CD70 (Flag-TNC-CD70) (human) (UniProt P32970)
T2 sequence (looked up): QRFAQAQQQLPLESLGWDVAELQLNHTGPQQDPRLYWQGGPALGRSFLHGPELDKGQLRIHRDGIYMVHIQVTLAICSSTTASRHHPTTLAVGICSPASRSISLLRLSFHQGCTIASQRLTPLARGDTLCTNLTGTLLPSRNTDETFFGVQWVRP

T3: rhesus CD70 on LCL8664 cells (rhesus monkey) (UniProt F7GPA5)
T3 sequence: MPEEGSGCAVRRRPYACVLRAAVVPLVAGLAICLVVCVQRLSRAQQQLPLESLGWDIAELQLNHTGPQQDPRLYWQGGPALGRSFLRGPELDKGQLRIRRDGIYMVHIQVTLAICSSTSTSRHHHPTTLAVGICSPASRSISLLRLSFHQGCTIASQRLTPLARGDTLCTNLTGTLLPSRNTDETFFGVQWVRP

T4: recombinant human CD70 (Flag-TNC-CD70) (human, UniProt P32970 39-193)
T4 construct: extracellular domain; also called recombinant CD70; human Flag-TNC-CD70; not shown: Flag tag and TNC trimerisation domain
T4 sequence (looked up): T2 sequence (looked up)

B1: ARGX-110 (non-fucosylated human IgG1 of germlined 27B3 clone 41D12) (antibody, V domains shown)
VH: EVQLVESGGGLVQPGGSLRLSCAASGFTFSVYYMNWVRQAPGKGLEWVSDINNEGGTTYYADSVKGRFTISRDNSKNSLYLQMNSLRAEDTAVYYCARDAGYSNHVPIFDSWGQGTLVTVSS
VL: QAVVTQEPSLTVSPGGTVTLTCGLKSGSVTSDNFPTWYQQTPGQAPRLLIYNTNTRHSGVPDRFSGSILGNKAALTITGAQADDEAEYFCALFISNPSVEFGGGTQLTVLG
notes: also called ARGX-100; 41D12 (ARGX-110)
B2: 27B3 Fab (Fab, V domains shown)
VH: B1 VH with S75A, S78T, Y80T, R87K, A88P, V93L, A97V, L117Q, T119I, S121A
VL: B1 VL with D32T, D62S, L69S, G70E, A82P, D83E, G111S
B3: 8B12 Fab (Fab, V domains shown)
VH: EVQLVESGGGLVQPGGSLRLSCAASGFTFSVYYMNWVRQAPGKGLEWVSDINNEGDTTYYADSVKGRFTISRDNAKNTLTLQMDSLKPEDTALYYCVRDAGYSNHVPIFDSWGQGTQVIVAS
VL: QTVVTQEPSLSVSPGGTVTLTCGLSSGSVTSSNYPGWYQQTPGQAPRVLIYNTNNRHSGVPSRYSGSISGNKAALTITGAEPEDEADYYCNLHLGSYTPMFGGGTKLTVLG
B4: 45D9 Fab (Fab, V domains shown)
VH: B3 VH with V31A, V48I, D56Y, T57E, L93R, P107Q
VL: QAVLTQPSSVSVSLGQTAKITCQGGNLWLYGANWYQQNPGRAPILLIYGDNQRPLGIPERFTISKSGGTATLTIDGAQAEDESDYYCQSADYSGNSVFGGGTKLTVLG
B5: 45F8 Fab (Fab, V domains shown)
VH: B3 VH with V31A, V48I, D56Y, T57E, L93R, P107Q
VL: B4 VL with K19N, W28G, I47F, Q52Y, R53M, D81N, A90S, S93P
B6: 57B6 Fab (Fab, V domains shown)
VH: QLQLVESGGGLVQPGGSLRLSCAASGFSFSHYAMSWVRQAPGKGLEWVSGDNTYDGGTRYQDSVKGRFTISRDNGKNTLYLQMNSLKPEDTAVYYCAKDTGRGIMGEYGMDYWGKGTLVTVSS
VL: QTVVTQEPSLSVSPGGTVTLTCGLKSGSVTSSNYPAWYQQTPGQAPRLLIYNTNSRHSGVPSRFSGSISGNKAALTITGAQPEDEADYYCALYMGSGSANAMFGGGTHLTVLG
notes: Llama-derived Fab from phage display; MYC tag at C-terminus of Fd
B7: 59D10 Fab (Fab, V domains shown)
VH: EVQLVESGGGLVQPGGSLRLSCAASELSFSISEMTWVRQAPGKGLEWVSGISGVTGGSSTSYADSVKGRFTISRDNDKNTLYLQMNSLIPEDTAVYYCATTSGTYYFIPEYEYWGQGTQVTVSS
VL: QSVLTQPPSVSGSPGKTVTISCAGTSSDVGYGYYVSWYQQFPGMAPKLLIYDVNKRASGIADRFSGSKAGNTASLTISGLQSEDEADYYCASYRSSANAVFGGGTHLTVLG
notes: as for B6
B8: 1C2 Fab (Fab, V domains shown)
VH: ELQVVESGGGLVQPGGSLRLSCAASGFTLSNYWMHWVRQAPRKGLEWVSTISTDNSRTYYADSVKGRFTISRDHAKNTLILQMNSLKSEDTAVYYCIRGSDYEHWGQGTQVTVSS
VL: QTVVTQEPSLSVSPGGTVTLTCGLSSGSVTTTNYPGWFQQTPGQAPRTLIYSTSSRHSGVPSRFSGSISGNKAALTITGAQPEDEADYYCALEEIGSYTYMFGGGTHLTVLG
notes: as for B6
B9: 9D1 Fab (Fab, V domains shown)
VH: B3 VH with D56G, D84N
VL: QAVVTQEPSLSVSPGGTVTLTCGLSSGSVTSSHYPGWYQQTPGQAPRLLIFNTNSRHSGVPSRFSGSISGNKAALTITGAQPEDEADYYCALLNIDDGSTMFGGGTHLTVLG
notes: as for B6
B10: 9G2 Fab (Fab, V domains shown)
VH: QVQLVESGGGLMQPGGSLRLSCAASGFTFSSSAMSWVRQAPGKGLEWVSSIYSDSSYTYYADSVKSRFTISTDNAKNTLYLQMNSLKPDDTAVYYCAGSSDYEGSFASWGQGTQVTVSS
VL: QSVVTQPPSLSASPGSSVRLTCTLSSGNSVGNYDISWYQQKAGSPPRYLLYYYSDSVKHQGSGVPSRFSGSSDASANAGLLLISGLQPEDEADYYCSAYKSGSHVFGGGTKLTVLG
notes: as for B6
B11: 5F4 Fab (Fab, V domains shown)
VH: EVQVQESGGGLVHPGGSLKLSCAASGFTFDTYAMSWVRQAPGKGLEWVSAISWSGGETFYAESMKGRFTISRNNAKNTLYLQMNSLKSEDTAVYYCARGMGLAEGLTDWGQGTQVTVSS
VL: QAVVTHPPSLSASPGSSVRLTCTLISGDNIGGYDISWYQQKTGSPPRYLLYYYSDSYKHQSSGVPSRFSGSKDASANAGLLLISGLQSEDEADYYCSAYKSGSYKAPVFGGGTHLTVLG
notes: as for B6
B12: 9E1 Fab (Fab, V domains shown)
VH: EVQLQESGGGVVQPGGSLRLSCAASGFTFDDYAMSWVRQAPGKGLEWVSSIYMYDSSTYYADSVKGRFTISTDNAKNTVYLQMNSLKSEDTAVYYCAKDINRSYGSSWSHFGPIFSSWGQGTQVTVSS
VL: QAVVTQEPSLSVSPGGTVTLTCGLTSGSVTSSNYPDWYQQTPGQAPRLLIYNTNSRHSGVPSRFSGSISGNKAALTITGAQPEDEADYYCNLYMGSGGSKVFGGGTKLTVLG
notes: as for B6
B13: 9B2 Fab (Fab, V domains shown)
VH: B10 VH with V2L, L4V, S31G, D54H, S56M, G98A, S105L, A107V
VL: B10 VL with S2A, V4L, S25N, G27A, N32S, V57L, K58S, S72T, K100N, S101R
notes: as for B6
B14: 4D2 Fab (Fab, V domains shown)
VH: QVQLQESGPGLVKPSQTLSLACTVSGGSITTSYYYWSWIRQPPGKGLEWMGAIGSRGSTYYSPSLKTRTSISRDTSKNQFTLQLSSVTPEDTAVYYCARVTGEITYNSGSYYYTLNLFDYWGQGTQVTVSS
VL: QSVLTQPPSLSASPGSSVRLTCTLSSGNSVGNYDISWYQQKAGSPPRYLLYYYSDSYKNQGSGVPSRFSGSKDPSANAGLLLISGLQAEDEADYYCSVSNSGTYKPVFGGGSKLTVLG
notes: as for B6

Experiments:
[1] = target: T1, rhesus recombinant CD70 (FLAG-TNC-rhesus CD70) (rhesus macaque (Macaca mulatta)); experiment: CD27-CD70 inhibition ELISA
[2] = target: T2, recombinant human CD70 (Flag-TNC-CD70) (human); experiment: ELISA on anti-Flag-captured Flag-TNC-CD70
[3] = target: cynomolgus monkey CD70 on HSC-F cells (cynomolgus monkey); experiment: FACS on HSC-F cells
[4] = target: T3, rhesus CD70 on LCL8664 cells (rhesus monkey); experiment: FACS on LCL8664 cells
[5] = target: T4, recombinant human CD70 (Flag-TNC-CD70); experiment: Biacore off-rate
[6] = target: T1, rhesus recombinant CD70 (FLAG-TNC-rhesus CD70) (rhesus macaque (Macaca mulatta)); experiment: Biacore off-rate
[7] = target: T2, recombinant human CD70 (Flag-TNC-CD70) (human); experiment: Biacore off-rate

| Binder | binding [5] | binding [6] | other results |
| --- | --- | --- | --- |
| B1 |  |  | binding [1]: binds; binding [2]: binds; binding [3]: binds; binding [4]: binds |
| B2 | binds |  |  |
| B3 | binds |  |  |
| B4 | binds |  |  |
| B5 | binds |  |  |
| B6 | binds | binds |  |
| B7 |  |  | binding [7]: binds |
| B8 |  | binds |  |
| B9 |  | binds |  |
| B10 |  | binds |  |
| B11 |  | binds |  |
| B12 |  | binds |  |
| B13 |  | binds |  |
| B14 |  | binds |  |
